## Assay results

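A panel of P. falciparum strains inside erythrocytes is exposed to compounds for three days, then a DNA-binding dye reports the amount of parasite DNA. Each compound was titrated across a series from about 0.000037 to 29 µM. The number is the fitted AC50, the concentration giving a half-maximal change in signal; a lower value means higher potency, whether the curve shows a decrease or an increase. Calls follow the curve class and fit quality: every row here is inconclusive, covering signal-raising curves and weak, poorly fitted, partial or highest-dose-only inhibition curves.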

Values are in µM. All entries here are filed as inconclusive. These entries are mostly ones the record files as inconclusive; other results of the assay are not listed here. Potencies fitted to partial, single-point or poorly fitting curves are rough.

{"structure": "Clc1ccc(C(c2ccccc2Cl)C(Cl)Cl)cc1", "stereo": "centres unmarked", "setting": "PC26", "Potency (µM)": "12", "curve": "inhibitor, single point"}
{"structure": "Clc1ccc(C(c2ccccc2Cl)C(Cl)Cl)cc1", "stereo": "centres unmarked", "setting": "DIV30", "Potency (µM)": "15.1", "curve": "inhibitor, partial curve, poor fit"}
{"structure": "Clc1ccc(C(c2ccccc2Cl)C(Cl)Cl)cc1", "stereo": "centres unmarked", "setting": "CP201", "Potency (µM)": "13.46", "curve": "inhibitor, single point"}
{"structure": "Clc1ccc(C(c2ccccc2Cl)C(Cl)Cl)cc1", "stereo": "centres unmarked", "setting": "3D7", "Potency (µM)": "15.85", "curve": "inhibitor, single point"}
{"structure": "Clc1ccc(C(c2ccccc2Cl)C(Cl)Cl)cc1", "stereo": "centres unmarked", "setting": "DIV14", "Potency (µM)": "19.01", "curve": "inhibitor, single point"}
{"structure": "Clc1ccc(C(c2ccccc2Cl)C(Cl)Cl)cc1", "stereo": "centres unmarked", "setting": "CP329", "Potency (µM)": "16.94", "curve": "inhibitor, partial curve, poor fit"}
{"structure": "Clc1ccc(C(c2ccccc2Cl)C(Cl)Cl)cc1", "stereo": "centres unmarked", "setting": "CP194", "Potency (µM)": "13.46", "curve": "inhibitor, single point"}
{"structure": "Clc1ccc(C(c2ccccc2Cl)C(Cl)Cl)cc1", "stereo": "centres unmarked", "setting": "CP297", "Potency (µM)": "10.69", "curve": "inhibitor, partial curve, poor fit"}
{"structure": "Clc1ccc(C(c2ccccc2Cl)C(Cl)Cl)cc1", "stereo": "centres unmarked", "setting": "CP215", "Potency (µM)": "16.94", "curve": "inhibitor, single point"}
{"structure": "Clc1ccc(C(c2ccccc2Cl)C(Cl)Cl)cc1", "stereo": "centres unmarked", "setting": "CP268", "Potency (µM)": "7.569", "curve": "inhibitor, partial curve, poor fit"}
{"structure": "Clc1ccc(C(c2ccccc2Cl)C(Cl)Cl)cc1", "stereo": "centres unmarked", "setting": "7G8", "Potency (µM)": "10", "curve": "inhibitor, single point"}
{"structure": "Clc1ccc(C(c2ccccc2Cl)C(Cl)Cl)cc1", "stereo": "centres unmarked", "setting": "CP203", "Potency (µM)": "21.33", "curve": "inhibitor, single point"}
{"structure": "CC1(C)O[C@H]2C[C@@H]3[C@H]4CCC5=CC(=O)CC[C@@]5(C)[C@]4(F)[C@@H](O)C[C@@]3(C)[C@@]2(C(=O)CCl)O1", "setting": "CP237", "Potency (µM)": "7.08", "curve": "inhibitor, single point"}
{"structure": "CC1(C)O[C@H]2C[C@@H]3[C@H]4CCC5=CC(=O)CC[C@@]5(C)[C@]4(F)[C@@H](O)C[C@@]3(C)[C@@]2(C(=O)CCl)O1", "setting": "CP192", "Potency (µM)": "5.103", "curve": "inhibitor, single point"}
{"structure": "CC1(C)O[C@H]2C[C@@H]3[C@H]4CCC5=CC(=O)CC[C@@]5(C)[C@]4(F)[C@@H](O)C[C@@]3(C)[C@@]2(C(=O)CCl)O1", "setting": "CP262", "Potency (µM)": "8.087", "curve": "inhibitor, single point"}
{"structure": "CC1(C)O[C@H]2C[C@@H]3[C@H]4CCC5=CC(=O)CC[C@@]5(C)[C@]4(F)[C@@H](O)C[C@@]3(C)[C@@]2(C(=O)CCl)O1", "setting": "CP185", "Potency (µM)": "7.08", "curve": "inhibitor, single point"}
{"structure": "CC1(C)O[C@H]2C[C@@H]3[C@H]4CCC5=CC(=O)CC[C@@]5(C)[C@]4(F)[C@@H](O)C[C@@]3(C)[C@@]2(C(=O)CCl)O1", "setting": "CP203", "Potency (µM)": "4.548", "curve": "inhibitor, partial curve"}
{"structure": "CC1(C)O[C@H]2C[C@@H]3[C@H]4CCC5=CC(=O)CC[C@@]5(C)[C@]4(F)[C@@H](O)C[C@@]3(C)[C@@]2(C(=O)CCl)O1", "setting": "Dd2", "Potency (µM)": "7.08", "curve": "inhibitor, single point"}
{"structure": "CC1(C)O[C@H]2C[C@@H]3[C@H]4CCC5=CC(=O)CC[C@@]5(C)[C@]4(F)[C@@H](O)C[C@@]3(C)[C@@]2(C(=O)CCl)O1", "setting": "CP201", "Potency (µM)": "3.612", "curve": "inhibitor, partial curve"}

The first 2 entries again:

* Clc1ccc(C(c2ccccc2Cl)C(Cl)Cl)cc1 (centres unmarked) [PC26] | Potency 12 µM (inhibitor, single point)
* Clc1ccc(C(c2ccccc2Cl)C(Cl)Cl)cc1 (centres unmarked) [DIV30] | Potency 15.1 µM (inhibitor, partial curve, poor fit)

From PubChem BioAssay record AID504749 (NCATS, 2011).